# Source: US20070054916A1, “Aryl nitrogen-containing bicyclic compounds and methods of use” (Amgen Inc., priority 2004, published 2007)
# Sequences of proteins named here, by UniProt entry; tags and fusion partners are left off. Residues count along the entry.
# UniProt Q02763, 23-1124: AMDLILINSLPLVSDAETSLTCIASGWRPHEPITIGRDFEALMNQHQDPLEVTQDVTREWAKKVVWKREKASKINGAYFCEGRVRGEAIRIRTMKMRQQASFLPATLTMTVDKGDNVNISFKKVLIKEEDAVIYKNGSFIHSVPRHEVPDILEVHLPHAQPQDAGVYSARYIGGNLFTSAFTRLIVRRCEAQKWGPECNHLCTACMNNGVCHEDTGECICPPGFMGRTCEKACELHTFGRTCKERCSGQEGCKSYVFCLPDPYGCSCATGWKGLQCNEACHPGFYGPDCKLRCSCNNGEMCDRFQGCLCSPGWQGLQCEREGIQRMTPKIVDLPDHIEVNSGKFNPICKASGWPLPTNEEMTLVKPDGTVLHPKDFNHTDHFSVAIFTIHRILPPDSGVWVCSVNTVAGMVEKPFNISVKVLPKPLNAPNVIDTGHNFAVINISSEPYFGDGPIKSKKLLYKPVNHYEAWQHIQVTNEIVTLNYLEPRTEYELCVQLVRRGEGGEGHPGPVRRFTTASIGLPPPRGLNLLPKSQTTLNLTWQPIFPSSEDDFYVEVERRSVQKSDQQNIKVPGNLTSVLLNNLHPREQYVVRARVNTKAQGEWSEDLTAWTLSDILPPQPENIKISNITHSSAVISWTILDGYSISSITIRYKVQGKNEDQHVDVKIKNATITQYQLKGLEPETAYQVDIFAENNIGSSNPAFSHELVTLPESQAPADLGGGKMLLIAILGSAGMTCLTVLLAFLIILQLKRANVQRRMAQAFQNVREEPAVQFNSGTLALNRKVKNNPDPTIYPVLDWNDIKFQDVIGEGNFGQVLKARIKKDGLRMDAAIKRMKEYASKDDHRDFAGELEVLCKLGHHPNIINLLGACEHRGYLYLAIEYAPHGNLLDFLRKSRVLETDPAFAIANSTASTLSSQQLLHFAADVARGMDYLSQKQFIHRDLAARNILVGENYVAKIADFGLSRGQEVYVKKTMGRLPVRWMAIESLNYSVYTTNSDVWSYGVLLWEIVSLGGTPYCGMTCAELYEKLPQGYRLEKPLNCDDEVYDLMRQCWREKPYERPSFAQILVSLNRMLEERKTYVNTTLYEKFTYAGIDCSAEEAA
# Some results were stated once for a whole list of compounds, not compound by compound.
# Molecular target: Tie-2 kinase enzyme (Homo sapiens, UniProt Q02763)
# Assay: Tie-2 Homogenous Time Resolved Flourescent (HTRF) kinase assay
# Assay type: biochemical
# Conditions: read-out: IC50's for the inhibition of Tie-2 as measured by the HTRF assay
row,Compound,IC50 [nM]
1,"Cc1ccc(C(=O)Nc2cc(C(F)(F)F)ccc2N(C)C2CCN(C)C2)cc1-c1ccc2nc(N)ncc2c1 (stereo in doubt) [Example 238, 3-(2-amino-6-quinazolinyl)-4-methyl-N-(2-(methyl((3S)-1-methyl-3-pyrrolidinyl)amino-5-(trifluoromethyl)phenyl)berizamide]",≤ 1000
2,"CN1CCC(N(C)c2ccc(C(F)(F)F)cc2NC(=O)c2cccc(-c3ccc4nc(N)ncc4c3)c2)C1 (stereo in doubt) [Example 240, 3-(2-amino-6-quinazolinyl)-N-(2-(methyl((3R)-1-methyl-3-pyrrolidinyl)amino-5-(trifluoromethyl)phenyl)benzamide]",≤ 1000
3,"CNc1ncc2cc(-c3cc(C(=O)Nc4cc(C(F)(F)F)ccc4F)ccc3C)ccc2n1 [Example 1, N-(2-fluoro-5-(trifluoromethyl)phenyl)-4-methyl-3-(2-(methylamino)quinazolin-6-yl)benzamide]",≤ 1000
4,"CNc1ncc2cc(-c3cc(C(=O)Nc4ccc(Cl)c(C(F)(F)F)c4C)ccc3C)ccc2n1 [Example 3, N-(4-chloro-2-methyl-3-(trifluoromethyl)phenyl)-4-methyl-3-(2-(methylamino)-quinazolinyl)benzamide]",≤ 1000
5,Cc1ccc(C(=O)Nc2ccc(NC(=O)NCCN3CCOCC3)c(C(F)(F)F)c2)cc1-c1ccc2nc(N)ncc2c1 [Example 4],≤ 1000
6,"CCN(CC)CCNC(=O)Nc1ccc(NC(=O)c2ccc(C)c(-c3ccc4nc(N)ncc4c3)c2)cc1C(F)(F)F [Example 5, 3-(2-amino-6-quinazolinyl)-N-(4-((((2-(diethylamino)ethyl)amino)carbonyl)amino)-3-(trifluoromethyl)phenyl)-4-methylbenzamide]",≤ 1000
7,Cc1ccc(C(=O)Nc2cc(C(=O)NCCN3CCOCC3)cc(C(F)(F)F)c2)cc1-c1ccc2nc(N)ncc2c1 [Example 6],≤ 1000
8,CCN(CC)CCNC(=O)c1cc(NC(=O)c2ccc(C)c(-c3ccc4nc(N)ncc4c3)c2)cc(C(F)(F)F)c1 [Example 7],≤ 1000
9,Cc1ccc(C(=O)Nc2cc(C(C)(C)C)ccc2NC(=O)CN2CCOCC2)cc1-c1ccc2nc(N)ncc2c1 [Example 8],≤ 1000
10,"CNc1ncc2cc(-c3ccc(F)c(C(=O)Nc4cc(C(F)(F)F)ccc4N(C)CCCN(C)C)c3)ccc2n1 [Example 9, N-(2-((3-(dimethylamino)propyl)(methyl)amino)-5-(trifluoromethyl)phenyl)-2-fluoro-5-(2-(methylamino)-6-quinazolinyl)benzamide]",≤ 1000
11,"CNc1ncc2cc(-c3cc(C(=O)Nc4cccc(C(F)(F)F)c4C)ccc3C)ccc2n1 [Example 11, 4-methyl-3-(2-(methylamino)-6-quinazolinyl)-N-(2-methyl-3-(trifluoromethyl)phenyl)benzamide]",≤ 1000
12,"CNc1ncc2cc(-c3cc(C(=O)Nc4ccc(Cl)c(C(F)(F)F)c4)ccc3C)ccc2n1 [Example 12, N-(4-chloro-3-(trifluoromethyl)phenyl)-4-methyl-3-(2-(methylamino)-6-quinazolinyl)benzamide]",≤ 1000
13,"Cc1ccc(C(=O)NC(C)C)cc1-c1ccc2nc(N)ncc2c1 [Example 13, 3-(2-amino-6-quinazolinyl)-4-methyl-N-(1-methylethyl)benzamide]",≤ 1000
14,"Cc1ccc(C(=O)NC2CCC2)cc1-c1ccc2nc(NCCN3CCOCC3)ncc2c1 [Example 14, N-cyclobutyl-4-methyl-3-(2-((2-(4-morpholinyl)ethyl)amino)-6-quinazolinyl)benzamide]",≤ 1000
15,"Nc1ncc2cc(-c3ccc(C(=O)Nc4cccc(C(F)(F)F)c4)cc3)ccc2n1 [Example 15, 4-(2-amino-6-quinazolinyl)-N-(3-(trifluoromethyl)phenyl)benzamide]",≤ 1000
16,"CNc1ncc2cc(-c3cc(C(=O)Nc4ccc(F)c(C(F)(F)F)c4)ccc3C)ccc2n1 [Example 16, N-(4-fluoro-3-(trifluoromethyl)phenyl)-4-methyl-3-(2-(methylamino)-6-quinazolinyl)benzamide]",≤ 1000
17,"Cc1ccc(C(=O)Nc2cccc(C(F)(F)F)c2)cc1-c1cnc2nc(N)nc(N)c2c1 [Example 17, 3-(2,4-diaminopyrido[2,3-d]pyrimidin-6-yl)-4-methyl-N-(3-(trifluoromethyl)phenyl)benzamide]",≤ 1000
18,"CNc1ncc2cc(-c3cc(C(=O)Nc4cccc(C(F)(F)F)c4)ccc3C)ccc2n1 [Example 18, 4-methyl-3-(2-(methylamino)-6-quinazolinyl)-N-(3-(trifluoromethyl)phenyl)benzamide]",≤ 1000
19,"Cc1ccc(C(=O)Nc2cccc(C(F)(F)F)c2F)cc1-c1ccc2nc(N)ncc2c1 [Example 19, 3-(2-amino-6-quinazolinyl)-N-(2-fluoro-3-(trifluoromethyl)phenyl)-4-methylbenzamide]",≤ 1000

row,Compound,IC50 [nM]
1,"Cc1ccc(C(=O)Nc2cccc(C(F)(F)F)c2)cc1-c1ccc2nc(NCCN3CCOCC3)ncc2c1 [Example 20, 4-methyl-3-(2-((2-(4-morpholinyl)ethyl)amino)-6-quinazolinyl)-N-(3-(trifluoromethyl)phenyl)benzamide]",≤ 1000
2,"Cc1ccc(C(=O)Nc2cccc3c2CCC3)cc1-c1ccc2nc(NCCN3CCOCC3)ncc2c1 [Example 21, N-(2,3-dihydro-1H-inden-4-yl)-4-methyl-3-(2-((2-(4-morpholinyl)ethyl)amino)-6-quinazolinyl) benzamide]",≤ 1000
3,"Cc1ccc(C(=O)Nc2cccc(C(F)(F)F)c2F)cc1-c1ccc2nc(NCCN3CCOCC3)ncc2c1 [Example 22, N-(2-fluoro-3-(trifluoromethyl)phenyl)-4-methyl-3-(2-((2-(4-morpholinyl)ethyl)amino)-6-quinazolinyl) benzamide]",≤ 1000
4,"Cc1ccc(C(=O)Nc2cccc(C(F)(F)F)c2F)cc1-c1ccc2nc(NCCCN3CCOCC3)ncc2c1 [Example 23, N-(2-fluoro-3-(trifluoromethyl)phenyl)-4-methyl-3-(2-((3-(4-morpholinyl)propyl)amino)-6-quinazolinyl) benzamide]",≤ 1000
5,"COCCNc1ncc2cc(-c3cc(C(=O)Nc4cccc(C(F)(F)F)c4F)ccc3C)ccc2n1 [Example 24, N-(2-fluoro-3-(trifluoromethyl)phenyl)-4-methyl-3-(2-((2-(methyloxy)ethyl)amino)-6-quinazolinyl) benzamide]",≤ 1000
6,Cc1ccc(C(=O)Nc2cccc(C(F)(F)F)c2F)cc1-c1ccc2nc(NC3CCN(C)CC3)ncc2c1 [Example 25],≤ 1000
7,"Cc1ccc(C(=O)Nc2cccc(C(F)(F)F)c2F)cc1-c1ccc2nc(NCCN3CCCC3)ncc2c1 [Example 26, N-(2-fluoro-3-(trifluoromethyl)phenyl)-4-methyl-3-(2-((2-(1-pyrrolidinyl)ethyl)amino)-6-quinazolinyl) benzamide]",≤ 1000
8,"Cc1ccc(C(=O)Nc2cccc(C(F)(F)F)c2C)cc1-c1ccc2nc(NCCN3CCOCC3)ncc2c1 [Example 28, 4-methyl-N-(2-methyl-3-(trifluoromethyl)phenyl)-3-(2-((2-(4-morpholinyl)ethyl)amino)-6-quinazolinyl) benzamide]",≤ 1000
9,"Cc1ccc(C(=O)Nc2cccc(C(F)(F)F)c2)cc1-c1ccc2nc(NC3CC3)ncc2c1 [Example 29, 3-(2-(cyclopropylamino)-6-quinazolinyl)-4-methyl-N-(3-(trifluoromethyl)phenyl)benzamide]",≤ 1000
10,"Cc1ccc(C(=O)Nc2cccc(C(F)(F)F)c2F)cc1-c1ccc2nc(Nc3ccc(N4CCN(C)CC4)cc3)ncc2c1 [Example 30, N-(2-fluoro-3-(trifluoromethyl)phenyl)-4-methyl-3-(2-((4-(4-methyl-1-piperazinyl)phenyl)amino)-6-quinazolinyl) benzamide]",≤ 1000
11,"Cc1ccc(C(=O)Nc2cccc(C(F)(F)F)c2F)cc1-c1ccc2nc(Nc3ccc(OCCCN4CCCCC4)cc3)ncc2c1 [Example 31, N-(2-fluoro-3-(trifluoromethyl)phenyl)-4-methyl-3-(2-((4-((3-(1-piperidinyl)propyl)oxy)phenyl)amino)-6-quinazotinyl) benzamide]",≤ 1000
12,"Cc1ccc(C(=O)Nc2cccc(C(F)(F)F)c2C)cc1-c1ccc2nc(NCCCN3CCOCC3)ncc2c1 [Example 32, 4-methyl-N-(2-methyl-3-(trifluoromethyl)phenyl)-3-(2-((3-(4-morpholinyl)propyl)amino)-6-quinazolinyl) benzamide]",≤ 1000
13,"Cc1ccc(C(=O)Nc2cccc(C(F)(F)F)c2C)cc1-c1ccc2nc(NCCN3CCCC3)ncc2c1 [Example 33, 4-methyl-N-(2-methyl-3-(trifluoromethyl)phenyl)-3-(2-((2-(1-pyrrolidinyl)ethyl)amino)-6-quinazolinyl) benzamide]",≤ 1000
14,"Cc1ccc(C(=O)Nc2cccc(C(F)(F)F)c2C)cc1-c1ccc2nc(NCCCN3CCCC3=O)ncc2c1 [Example 34, 4-methyl-N-(2-methyl-3-(trifluoromethyl)phenyl)-3-(2-((3-(2-oxo-1-pyrrolidinyl)propyl)amino)-6-quinazolinyl) benzamide]",≤ 1000
15,"CCN1CCC(CNc2ncc3cc(-c4cc(C(=O)Nc5cccc(C(F)(F)F)c5C)ccc4C)ccc3n2)CC1 [Example 35, 3-(2-(((1-ethyl-4-piperidinyl)methyl)amino)-6-quinazolinyl)-4-methyl-N-(2-methyl-3-(trifluoromethyl)phenyl)benzamide]",≤ 1000
16,"Cc1ccc(C(=O)Nc2cccc(C(F)(F)F)c2C)cc1-c1ccc2nc(NC3CCN(C)CC3)ncc2c1 [Example 36, 4-methyl-3-(2-((1-methyl-4-piperidinyl)amino)-6-quinazolinyl)-N-(2-methyl-3-(trifluoromethyl)phenyl)benzamide]",≤ 1000
17,"Cc1ccc(C(=O)Nc2cccc(C(F)(F)F)c2C)cc1-c1ccc2nc(NC3CC3)ncc2c1 [Example 37, 3-(2-(cyclopropylamino)-6-quinazolinyl)-4-methyl-N-(2-methyl-3-(trifluoromethyl)phenyl)benzamide]",≤ 1000
18,"CNc1ncc2cc(-c3cc(C(=O)Nc4cccc(C(F)(F)F)c4)c(F)cc3C)ccc2n1 [Example 38, 2-fluoro-4-methyl-5-(2-(methylamino)-6-quinazolinyl)-N-(3-(trifluoromethyl)phenyl)benzamide]",≤ 1000
